Experiments:
BMX/ETK = BMX/ETK (Homo sapiens, UniProt P51813); conditions: 1 μM; Run 1, Run 2
CAMK2d = CAMK2d (Homo sapiens, UniProt Q13557); conditions: 1 μM; Run 1, Run 2
CDK1/cyclin E = CDK1/cyclin E (Homo sapiens, UniProt P06493); conditions: 1 μM; Run 1, Run 2
CDK4/cyclin D3 = CDK4/cyclin D3 (Homo sapiens, UniProt P11802); conditions: 1 μM; Run 1, Run 2
CK1g2 = CK1g2 (Homo sapiens, UniProt P78368); conditions: 1 μM; Run 1, Run 2
CK2a2 = CK2a2 (Homo sapiens, UniProt P19784); conditions: 1 μM; Run 1, Run 2
DAPK2 = DAPK2 (Homo sapiens, UniProt Q9UIK4); conditions: 1 μM; Run 1, Run 2
DYRK2 = DYRK2 (Homo sapiens, UniProt Q92630); conditions: 1 μM; Run 1, Run 2
ERBB4/HER4 = ERBB4/HER4 (Homo sapiens, UniProt Q15303); conditions: 1 μM; Run 1, Run 2
ERK7/MAPK15 = ERK7/MAPK15 (Homo sapiens, UniProt Q8TD08); conditions: 1 μM; Run 1, Run 2
ERN2/IRE2 = ERN2/IRE2 (Homo sapiens, UniProt Q76MJ5); conditions: 1 μM; Run 1, Run 2
FGFR2 = FGFR2 (Homo sapiens, UniProt P21802); conditions: 1 μM; Run 1, Run 2
GRK2 = GRK2 (Homo sapiens, UniProt P25098); conditions: 1 μM; Run 1, Run 2
GRK5 = GRK5 (Homo sapiens, UniProt P34947); conditions: 1 μM; Run 1, Run 2
HCK = HCK (Homo sapiens, UniProt P08631); conditions: 1 μM; Run 1, Run 2
HIPK3 = HIPK3 (Homo sapiens, UniProt Q9H422); conditions: 1 μM; Run 1, Run 2
LIMK1 = LIMK1 (Homo sapiens, UniProt P53667); conditions: 1 μM; Run 1, Run 2
NEK1 = NEK1 (Homo sapiens, UniProt Q96PY6); conditions: 1 μM; Run 1, Run 2
P38d/MAPK13 = P38d/MAPK13 (Homo sapiens, UniProt O15264); conditions: 1 μM; Run 1, Run 2
PKCnu/PRKD3 = PKCnu/PRKD3 (Homo sapiens, UniProt O94806); conditions: 1 μM; Run 1, Run 2
RIPK4 = RIPK4 (Homo sapiens, UniProt P57078); conditions: 1 μM; Run 1, Run 2
TTBK2 = TTBK2 (Homo sapiens, UniProt Q6IQ55); conditions: 1 μM; Run 1, Run 2
BLK = BLK (Homo sapiens, UniProt P51451); experiment: biochemical; conditions: read-out: % enzyme activity, 1 μM; Run 1, Run 2
CDK9/cyclin T1 = CDK9/cyclin T1 (Homo sapiens, UniProt P50750); experiment: biochemical; conditions: read-out: % enzyme activity, 1 μM; Run 1, Run 2
CHK1 = CHK1 (Homo sapiens, UniProt O14757); experiment: biochemical; conditions: read-out: % enzyme activity, 1 μM; Run 1, Run 2
CHK2 = CHK2 (Homo sapiens, UniProt O96017); experiment: biochemical; conditions: read-out: % enzyme activity, 1 μM; Run 1, Run 2
EPHA1 = EPHA1 (Homo sapiens, UniProt P21709); experiment: biochemical; conditions: read-out: % enzyme activity, 1 μM; Run 1, Run 2
EPHA7 = EPHA7 (Homo sapiens, UniProt Q15375); experiment: biochemical; conditions: read-out: % enzyme activity, 1 μM; Run 1, Run 2
GRK3 = GRK3 (Homo sapiens, UniProt P35626); experiment: biochemical; conditions: read-out: % enzyme activity, 1 μM; Run 1, Run 2
GRK6 = GRK6 (Homo sapiens, UniProt P43250); experiment: biochemical; conditions: read-out: % enzyme activity, 1 μM; Run 1, Run 2
GSK3b = GSK3b (Homo sapiens, UniProt P49841); experiment: biochemical; conditions: read-out: % enzyme activity, 1 μM; Run 1, Run 2
JAK3 = JAK3 (Homo sapiens, UniProt P52333); experiment: biochemical; conditions: read-out: % enzyme activity, 1 μM; Run 1, Run 2
JNK3 = JNK3 (Homo sapiens, UniProt P53779); experiment: biochemical; conditions: read-out: % enzyme activity, 1 μM; Run 1, Run 2
LCK2/ICK = LCK2/ICK (Homo sapiens, UniProt Q9UPZ9); experiment: biochemical; conditions: read-out: % enzyme activity, 1 μM; Run 1, Run 2
MARK2/PAR-1Ba = MARK2/PAR-1Ba (Homo sapiens, UniProt Q7KZI7); experiment: biochemical; conditions: read-out: % enzyme activity, 1 μM; Run 1, Run 2
MEK1 = MEK1 (Homo sapiens, UniProt Q02750); experiment: biochemical; conditions: read-out: % enzyme activity, 1 μM; Run 1, Run 2
NEK9 = NEK9 (Homo sapiens, UniProt Q8TD19); experiment: biochemical; conditions: read-out: % enzyme activity, 1 μM; Run 1, Run 2
PAK6 = PAK6 (Homo sapiens, UniProt Q9NQU5); experiment: biochemical; conditions: read-out: % enzyme activity, 1 μM; Run 1, Run 2
PKCtheta = PKCtheta (Homo sapiens, UniProt Q04759); experiment: biochemical; conditions: read-out: % enzyme activity, 1 μM; Run 1, Run 2
PKMYT1 = PKMYT1 (Homo sapiens, UniProt Q99640); experiment: biochemical; conditions: read-out: % enzyme activity, 1 μM; Run 1, Run 2
STK32B/YANK2 = STK32B/YANK2 (Homo sapiens, UniProt Q9NY57); experiment: biochemical; conditions: read-out: % enzyme activity, 1 μM; Run 1, Run 2
TLK1 = TLK1 (Homo sapiens, UniProt Q9UKI8); experiment: biochemical; conditions: read-out: % enzyme activity, 1 μM; Run 1, Run 2
TTBK1 = TTBK1 (Homo sapiens, UniProt Q5TCY1); experiment: biochemical; conditions: read-out: % enzyme activity, 1 μM; Run 1, Run 2

Sequences of proteins named here, by UniProt entry; tags and fusion partners are left off. A change or cut given only in a name is not applied to a line headed by its entry.
UniProt P11802: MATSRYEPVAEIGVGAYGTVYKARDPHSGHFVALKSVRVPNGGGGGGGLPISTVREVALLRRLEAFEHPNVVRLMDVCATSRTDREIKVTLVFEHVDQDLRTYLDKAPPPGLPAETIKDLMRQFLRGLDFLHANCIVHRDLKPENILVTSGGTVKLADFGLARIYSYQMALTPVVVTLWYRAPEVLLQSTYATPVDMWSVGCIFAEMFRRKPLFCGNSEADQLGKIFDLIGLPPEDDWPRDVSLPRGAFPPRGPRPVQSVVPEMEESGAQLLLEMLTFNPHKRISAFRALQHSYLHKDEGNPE
UniProt P78368: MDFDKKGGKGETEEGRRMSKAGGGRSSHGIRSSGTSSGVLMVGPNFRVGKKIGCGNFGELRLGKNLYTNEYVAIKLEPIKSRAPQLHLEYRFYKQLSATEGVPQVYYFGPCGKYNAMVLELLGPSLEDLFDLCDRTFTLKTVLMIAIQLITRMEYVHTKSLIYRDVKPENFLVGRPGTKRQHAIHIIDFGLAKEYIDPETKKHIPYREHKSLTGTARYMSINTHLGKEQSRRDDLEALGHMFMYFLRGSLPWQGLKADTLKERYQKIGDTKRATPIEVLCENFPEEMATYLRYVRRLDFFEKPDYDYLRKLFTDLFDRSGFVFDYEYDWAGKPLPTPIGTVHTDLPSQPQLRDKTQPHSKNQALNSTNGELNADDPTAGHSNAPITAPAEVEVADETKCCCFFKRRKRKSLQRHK
UniProt P19784, whole entry: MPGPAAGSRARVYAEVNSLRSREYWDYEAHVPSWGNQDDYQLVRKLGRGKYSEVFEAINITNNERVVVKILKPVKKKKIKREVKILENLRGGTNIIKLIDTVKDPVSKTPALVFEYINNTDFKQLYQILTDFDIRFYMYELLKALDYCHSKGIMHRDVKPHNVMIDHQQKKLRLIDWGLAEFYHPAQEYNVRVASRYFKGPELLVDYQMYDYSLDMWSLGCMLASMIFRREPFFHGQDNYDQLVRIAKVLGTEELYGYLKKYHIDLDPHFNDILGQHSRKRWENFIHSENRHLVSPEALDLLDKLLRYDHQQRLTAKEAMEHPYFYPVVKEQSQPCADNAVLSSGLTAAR
UniProt P25098: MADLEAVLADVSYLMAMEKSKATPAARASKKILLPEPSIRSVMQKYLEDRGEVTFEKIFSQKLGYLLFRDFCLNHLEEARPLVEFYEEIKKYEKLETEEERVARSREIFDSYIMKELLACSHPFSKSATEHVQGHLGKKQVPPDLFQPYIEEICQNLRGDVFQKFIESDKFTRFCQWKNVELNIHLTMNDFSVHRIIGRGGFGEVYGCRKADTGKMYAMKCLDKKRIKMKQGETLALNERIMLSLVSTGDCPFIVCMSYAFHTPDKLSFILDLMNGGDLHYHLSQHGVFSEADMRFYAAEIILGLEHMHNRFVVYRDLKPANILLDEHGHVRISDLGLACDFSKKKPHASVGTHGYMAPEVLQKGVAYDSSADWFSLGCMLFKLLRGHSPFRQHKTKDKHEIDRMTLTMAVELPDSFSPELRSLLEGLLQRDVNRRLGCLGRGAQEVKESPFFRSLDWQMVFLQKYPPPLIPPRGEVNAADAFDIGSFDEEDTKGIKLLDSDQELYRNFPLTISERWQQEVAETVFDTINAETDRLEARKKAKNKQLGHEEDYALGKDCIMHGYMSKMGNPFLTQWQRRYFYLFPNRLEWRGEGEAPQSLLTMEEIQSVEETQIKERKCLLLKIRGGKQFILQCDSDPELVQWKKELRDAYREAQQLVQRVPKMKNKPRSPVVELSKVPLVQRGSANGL
UniProt P34947, whole entry: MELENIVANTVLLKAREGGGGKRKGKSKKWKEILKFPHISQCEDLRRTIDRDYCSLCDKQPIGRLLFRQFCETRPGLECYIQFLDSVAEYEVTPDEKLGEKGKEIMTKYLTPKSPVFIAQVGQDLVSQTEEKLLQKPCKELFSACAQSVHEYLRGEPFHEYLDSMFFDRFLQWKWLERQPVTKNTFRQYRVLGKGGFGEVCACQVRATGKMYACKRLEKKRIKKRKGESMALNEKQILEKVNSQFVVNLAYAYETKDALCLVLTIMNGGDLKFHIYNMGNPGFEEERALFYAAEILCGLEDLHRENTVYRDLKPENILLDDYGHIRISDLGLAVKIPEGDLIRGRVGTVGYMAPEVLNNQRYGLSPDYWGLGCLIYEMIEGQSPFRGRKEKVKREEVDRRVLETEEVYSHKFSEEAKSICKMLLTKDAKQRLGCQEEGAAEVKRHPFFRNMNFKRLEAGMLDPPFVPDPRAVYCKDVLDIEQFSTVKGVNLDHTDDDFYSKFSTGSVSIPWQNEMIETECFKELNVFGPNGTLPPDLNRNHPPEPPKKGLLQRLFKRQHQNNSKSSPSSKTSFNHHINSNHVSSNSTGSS
UniProt P53667: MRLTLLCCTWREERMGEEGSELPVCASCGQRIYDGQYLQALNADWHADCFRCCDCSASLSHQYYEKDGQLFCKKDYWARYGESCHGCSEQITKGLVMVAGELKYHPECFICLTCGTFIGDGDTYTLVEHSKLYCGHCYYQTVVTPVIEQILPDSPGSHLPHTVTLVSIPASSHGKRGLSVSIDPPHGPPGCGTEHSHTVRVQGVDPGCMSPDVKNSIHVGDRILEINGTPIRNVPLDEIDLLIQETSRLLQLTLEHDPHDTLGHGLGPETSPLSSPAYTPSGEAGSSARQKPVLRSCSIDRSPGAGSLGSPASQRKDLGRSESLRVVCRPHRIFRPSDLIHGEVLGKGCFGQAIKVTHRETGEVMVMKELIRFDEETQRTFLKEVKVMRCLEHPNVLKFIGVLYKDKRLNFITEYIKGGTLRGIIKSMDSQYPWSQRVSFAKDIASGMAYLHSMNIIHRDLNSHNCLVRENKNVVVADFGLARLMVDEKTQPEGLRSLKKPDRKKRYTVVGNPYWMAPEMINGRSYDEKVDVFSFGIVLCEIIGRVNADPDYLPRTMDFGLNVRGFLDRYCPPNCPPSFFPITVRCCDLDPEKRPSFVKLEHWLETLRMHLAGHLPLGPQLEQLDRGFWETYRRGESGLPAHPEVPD
UniProt P35626: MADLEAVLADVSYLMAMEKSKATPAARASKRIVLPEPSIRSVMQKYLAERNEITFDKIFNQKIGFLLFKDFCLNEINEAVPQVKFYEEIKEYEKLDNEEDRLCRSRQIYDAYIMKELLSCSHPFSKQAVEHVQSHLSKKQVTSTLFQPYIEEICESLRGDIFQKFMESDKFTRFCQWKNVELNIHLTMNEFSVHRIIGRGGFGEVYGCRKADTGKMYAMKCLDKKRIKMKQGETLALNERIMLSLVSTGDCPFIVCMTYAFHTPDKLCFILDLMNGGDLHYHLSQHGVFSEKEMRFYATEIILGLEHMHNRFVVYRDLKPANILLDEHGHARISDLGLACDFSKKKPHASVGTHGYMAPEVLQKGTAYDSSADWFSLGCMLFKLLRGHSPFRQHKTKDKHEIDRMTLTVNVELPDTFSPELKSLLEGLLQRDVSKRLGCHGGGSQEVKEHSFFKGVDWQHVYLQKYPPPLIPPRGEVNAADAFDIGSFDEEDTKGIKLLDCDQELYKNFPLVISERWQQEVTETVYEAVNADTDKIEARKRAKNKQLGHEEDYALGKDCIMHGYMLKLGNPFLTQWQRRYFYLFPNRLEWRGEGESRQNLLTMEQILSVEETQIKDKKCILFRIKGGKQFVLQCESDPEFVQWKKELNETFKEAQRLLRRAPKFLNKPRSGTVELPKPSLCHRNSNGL
UniProt Q7KZI7: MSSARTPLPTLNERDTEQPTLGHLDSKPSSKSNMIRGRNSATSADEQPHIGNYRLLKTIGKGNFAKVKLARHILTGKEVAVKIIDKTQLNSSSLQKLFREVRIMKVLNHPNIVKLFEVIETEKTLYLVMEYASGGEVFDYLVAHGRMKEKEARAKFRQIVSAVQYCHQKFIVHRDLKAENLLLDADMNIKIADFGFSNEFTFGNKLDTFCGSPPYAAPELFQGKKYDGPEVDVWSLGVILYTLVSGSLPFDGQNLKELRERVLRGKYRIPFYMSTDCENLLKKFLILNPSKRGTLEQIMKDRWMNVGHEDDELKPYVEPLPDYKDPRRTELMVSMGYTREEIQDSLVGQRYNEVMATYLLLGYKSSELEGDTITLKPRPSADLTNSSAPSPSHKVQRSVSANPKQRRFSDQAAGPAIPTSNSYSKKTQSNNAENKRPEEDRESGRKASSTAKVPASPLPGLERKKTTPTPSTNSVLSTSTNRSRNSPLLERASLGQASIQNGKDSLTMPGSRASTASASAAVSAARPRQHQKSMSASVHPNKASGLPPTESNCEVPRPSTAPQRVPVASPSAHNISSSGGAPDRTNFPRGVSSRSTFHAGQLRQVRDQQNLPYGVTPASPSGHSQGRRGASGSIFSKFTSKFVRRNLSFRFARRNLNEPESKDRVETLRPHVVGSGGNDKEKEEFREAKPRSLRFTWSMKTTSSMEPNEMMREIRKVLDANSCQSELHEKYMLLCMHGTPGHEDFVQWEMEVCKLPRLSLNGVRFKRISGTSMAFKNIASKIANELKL
UniProt Q9UKI8: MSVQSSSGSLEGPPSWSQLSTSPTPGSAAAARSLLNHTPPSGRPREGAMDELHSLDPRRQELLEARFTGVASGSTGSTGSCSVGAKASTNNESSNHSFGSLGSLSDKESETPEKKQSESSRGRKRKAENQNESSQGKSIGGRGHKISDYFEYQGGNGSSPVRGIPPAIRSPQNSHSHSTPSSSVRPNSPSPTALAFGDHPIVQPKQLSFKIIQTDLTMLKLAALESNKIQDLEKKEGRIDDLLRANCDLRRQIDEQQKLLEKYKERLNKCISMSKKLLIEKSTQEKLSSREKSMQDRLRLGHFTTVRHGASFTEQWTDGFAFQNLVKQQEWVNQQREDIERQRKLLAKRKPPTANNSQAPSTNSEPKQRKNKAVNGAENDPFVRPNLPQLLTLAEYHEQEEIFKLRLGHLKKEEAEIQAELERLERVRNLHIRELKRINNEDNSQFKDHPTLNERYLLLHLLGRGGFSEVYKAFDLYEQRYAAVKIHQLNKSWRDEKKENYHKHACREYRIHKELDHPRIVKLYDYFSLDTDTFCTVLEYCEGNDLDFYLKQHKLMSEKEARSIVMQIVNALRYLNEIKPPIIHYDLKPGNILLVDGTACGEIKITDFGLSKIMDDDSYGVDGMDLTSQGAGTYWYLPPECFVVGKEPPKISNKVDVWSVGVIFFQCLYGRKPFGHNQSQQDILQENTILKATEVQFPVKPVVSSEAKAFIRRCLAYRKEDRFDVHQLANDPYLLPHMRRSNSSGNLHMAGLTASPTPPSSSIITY
UniProt Q5TCY1: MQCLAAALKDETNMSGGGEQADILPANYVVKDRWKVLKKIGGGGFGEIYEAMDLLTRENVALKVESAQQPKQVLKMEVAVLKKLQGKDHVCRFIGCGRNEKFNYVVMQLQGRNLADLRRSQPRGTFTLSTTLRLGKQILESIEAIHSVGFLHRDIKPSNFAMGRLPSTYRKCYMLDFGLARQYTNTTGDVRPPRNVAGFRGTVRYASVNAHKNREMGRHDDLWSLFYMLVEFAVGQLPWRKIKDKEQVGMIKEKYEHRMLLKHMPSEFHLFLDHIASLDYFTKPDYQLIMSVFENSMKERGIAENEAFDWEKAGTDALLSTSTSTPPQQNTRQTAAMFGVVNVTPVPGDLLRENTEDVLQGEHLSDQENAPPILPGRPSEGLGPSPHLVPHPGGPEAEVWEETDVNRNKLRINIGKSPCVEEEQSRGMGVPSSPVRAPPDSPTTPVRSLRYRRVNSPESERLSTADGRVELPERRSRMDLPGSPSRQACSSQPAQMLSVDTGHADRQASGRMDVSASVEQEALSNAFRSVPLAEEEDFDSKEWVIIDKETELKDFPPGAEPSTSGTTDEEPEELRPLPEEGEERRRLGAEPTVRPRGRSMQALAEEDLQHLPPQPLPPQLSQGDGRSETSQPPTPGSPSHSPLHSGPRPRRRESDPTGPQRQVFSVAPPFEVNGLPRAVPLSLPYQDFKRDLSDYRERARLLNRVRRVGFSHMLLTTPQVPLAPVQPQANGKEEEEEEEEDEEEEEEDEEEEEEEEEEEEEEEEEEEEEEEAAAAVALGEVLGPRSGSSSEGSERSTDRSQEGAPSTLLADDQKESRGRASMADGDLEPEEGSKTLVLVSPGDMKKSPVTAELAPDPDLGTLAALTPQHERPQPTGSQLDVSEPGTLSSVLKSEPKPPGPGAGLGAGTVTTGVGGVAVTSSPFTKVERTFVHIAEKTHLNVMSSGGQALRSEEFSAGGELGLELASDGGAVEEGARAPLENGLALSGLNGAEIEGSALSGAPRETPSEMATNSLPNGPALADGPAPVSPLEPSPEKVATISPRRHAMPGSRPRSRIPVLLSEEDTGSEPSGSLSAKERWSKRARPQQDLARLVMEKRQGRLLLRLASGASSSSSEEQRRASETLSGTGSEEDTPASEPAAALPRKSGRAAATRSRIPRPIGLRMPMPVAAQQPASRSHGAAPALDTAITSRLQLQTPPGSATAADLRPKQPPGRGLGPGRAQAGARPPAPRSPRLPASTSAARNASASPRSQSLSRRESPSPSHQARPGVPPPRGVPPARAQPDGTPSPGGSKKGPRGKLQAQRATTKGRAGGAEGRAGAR

## COc1cc(-c2cncc(-c3ccc(N4CCN(C(C)C)CC4)cc3)c2C)cc(F)c1C(N)=O [Compound 26b, 2-Fluoro-4-(5-(4-(4-isopropylpiperazin-1-yl)phenyl)-4-methylpyridin-3-yl)-6-methoxybenzamide]
BMX/ETK
  % enzyme activity: 102.35%
CAMK2d
  % enzyme activity: 93.45%
CDK1/cyclin E
  % enzyme activity: 99.30%
CDK4/cyclin D3
  % enzyme activity: 93.67%
CK1g2
  % enzyme activity: 70.17%
CK2a2
  % enzyme activity: 91.24%
DAPK2
  % enzyme activity: 103.70%
DYRK2
  % enzyme activity: 95.78%
ERBB4/HER4
  % enzyme activity: 100.25%
ERK7/MAPK15
  % enzyme activity: 89.98%
ERN2/IRE2
  % enzyme activity: 103.94%
FGFR2
  % enzyme activity: 97.43%
GRK2
  % enzyme activity: 105.76%
GRK5
  % enzyme activity: 97.81%
HCK
  % enzyme activity: 93.44%
HIPK3
  % enzyme activity: 85.10%
LIMK1
  % enzyme activity: 76.31%
NEK1
  % enzyme activity: 93.20%
P38d/MAPK13
  % enzyme activity: 101.10%
PKCnu/PRKD3
  % enzyme activity: 144.24%
RIPK4
  % enzyme activity: 77.02%
TTBK2
  % enzyme activity: 94.77%
BLK
  remaining activity at 1 µM: 101%
CDK9/cyclin T1
  remaining activity at 1 µM: 93.5%
CHK1
  remaining activity at 1 µM: 106%
CHK2
  remaining activity at 1 µM: 95.4%
EPHA1
  remaining activity at 1 µM: 98%
EPHA7
  remaining activity at 1 µM: 103%
GRK3
  remaining activity at 1 µM: 97.9%
GRK6
  remaining activity at 1 µM: 104%
GSK3b
  remaining activity at 1 µM: 99.5%
JAK3
  remaining activity at 1 µM: 103%
JNK3
  remaining activity at 1 µM: 98.8%
LCK2/ICK
  remaining activity at 1 µM: 89.4%
MARK2/PAR-1Ba
  remaining activity at 1 µM: 93.7%
MEK1
  remaining activity at 1 µM: 104%
NEK9
  remaining activity at 1 µM: 82.7%
PAK6
  remaining activity at 1 µM: 98.8%
PKCtheta
  remaining activity at 1 µM: 103%
PKMYT1
  remaining activity at 1 µM: 125%
STK32B/YANK2
  remaining activity at 1 µM: 86.5%
TLK1
  remaining activity at 1 µM: 111%
TTBK1
  remaining activity at 1 µM: 96.9%

From publication PMC8213057, “Targeting ALK2: An Open Science Approach to Developing Therapeutics for the Treatment of Diffuse Intrinsic Pontine Glioma” (Journal of Medicinal Chemistry, 2020)
